Some of the results follow.
Tests used:
Assay in all cases: log2 fold change, soluble protein after heating vs DMSO (PISA); higher = thermal stabilisation; K562 cells, 10 uM, 30 min; active = over 0.2 and 3.5 SD of the protein, either way, in both replicates (recomputed)
[1] = compound: CC[C@@H]1C(=O)N(C)c2cnc(Nc3ccc(C(=O)NC4CCN(C)CC4)cc3OC)nc2N1C1CCCC1
Procedure, shortened: (§1)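 Values are thermal stability changes relative to control samples and are taken from duplicates. They are stated as log2 fold changes. Before quantification by TMTpro 16plex LC-MS/MS with equalised channel sums, K562 cells at 2×10^6 cells/mL were treated with 10 μM compound for 30 min, heated in aliquots for 3 min across 48°C-58°C, pooled, extracted in PBS with 0.5% NP-40 at 4°C, and centrifuged at 21,000xg for 90 min to give the soluble supernatant.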

Sequences of proteins named here, by UniProt entry; tags and fusion partners are left off. A change or cut given only in a name is not applied to a line headed by its entry.
UniProt Q8N9N2: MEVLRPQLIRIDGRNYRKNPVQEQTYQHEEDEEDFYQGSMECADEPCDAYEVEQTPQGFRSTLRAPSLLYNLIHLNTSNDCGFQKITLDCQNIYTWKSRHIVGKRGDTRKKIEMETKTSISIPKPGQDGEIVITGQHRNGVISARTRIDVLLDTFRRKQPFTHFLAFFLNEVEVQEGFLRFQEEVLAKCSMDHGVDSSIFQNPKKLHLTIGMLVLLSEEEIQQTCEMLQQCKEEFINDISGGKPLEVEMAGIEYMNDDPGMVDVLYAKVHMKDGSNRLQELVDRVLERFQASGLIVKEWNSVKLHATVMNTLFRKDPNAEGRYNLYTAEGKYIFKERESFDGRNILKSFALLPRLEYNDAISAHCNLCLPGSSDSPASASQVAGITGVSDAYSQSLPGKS
UniProt Q8IUR7, whole entry, looked up: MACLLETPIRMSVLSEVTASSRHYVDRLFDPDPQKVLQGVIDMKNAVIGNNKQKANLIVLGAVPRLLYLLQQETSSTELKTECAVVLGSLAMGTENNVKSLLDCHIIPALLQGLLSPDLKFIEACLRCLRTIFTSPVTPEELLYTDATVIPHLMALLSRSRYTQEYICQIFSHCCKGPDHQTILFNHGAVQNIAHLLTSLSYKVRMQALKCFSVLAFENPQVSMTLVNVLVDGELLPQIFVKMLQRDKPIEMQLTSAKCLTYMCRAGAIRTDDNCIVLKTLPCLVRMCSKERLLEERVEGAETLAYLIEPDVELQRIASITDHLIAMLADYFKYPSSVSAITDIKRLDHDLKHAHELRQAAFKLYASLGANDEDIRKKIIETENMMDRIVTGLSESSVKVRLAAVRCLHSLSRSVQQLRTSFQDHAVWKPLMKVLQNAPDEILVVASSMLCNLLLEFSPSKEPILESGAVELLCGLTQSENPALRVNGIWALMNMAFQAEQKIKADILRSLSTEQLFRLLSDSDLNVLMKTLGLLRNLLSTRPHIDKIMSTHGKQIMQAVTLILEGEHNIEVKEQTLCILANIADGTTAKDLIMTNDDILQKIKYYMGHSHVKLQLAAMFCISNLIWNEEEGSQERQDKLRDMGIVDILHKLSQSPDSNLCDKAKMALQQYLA
UniProt Q8NBU5: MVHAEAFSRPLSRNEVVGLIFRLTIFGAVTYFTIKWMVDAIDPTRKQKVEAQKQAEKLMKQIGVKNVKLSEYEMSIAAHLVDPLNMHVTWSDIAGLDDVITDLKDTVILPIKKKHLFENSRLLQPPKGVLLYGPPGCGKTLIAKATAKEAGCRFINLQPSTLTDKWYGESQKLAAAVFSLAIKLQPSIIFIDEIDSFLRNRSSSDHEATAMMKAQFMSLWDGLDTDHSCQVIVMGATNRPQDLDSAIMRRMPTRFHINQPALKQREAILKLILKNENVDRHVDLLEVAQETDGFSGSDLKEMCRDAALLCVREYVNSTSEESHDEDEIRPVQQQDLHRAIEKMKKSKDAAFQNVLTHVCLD
UniProt Q66PJ3: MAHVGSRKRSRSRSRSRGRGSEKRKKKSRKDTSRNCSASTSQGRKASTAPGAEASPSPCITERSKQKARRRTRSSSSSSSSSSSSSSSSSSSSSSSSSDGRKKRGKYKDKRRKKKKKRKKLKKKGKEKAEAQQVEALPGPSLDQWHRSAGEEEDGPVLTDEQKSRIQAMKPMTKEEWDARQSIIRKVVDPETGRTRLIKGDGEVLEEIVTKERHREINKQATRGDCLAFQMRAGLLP
UniProt Q9Y487, whole entry, looked up: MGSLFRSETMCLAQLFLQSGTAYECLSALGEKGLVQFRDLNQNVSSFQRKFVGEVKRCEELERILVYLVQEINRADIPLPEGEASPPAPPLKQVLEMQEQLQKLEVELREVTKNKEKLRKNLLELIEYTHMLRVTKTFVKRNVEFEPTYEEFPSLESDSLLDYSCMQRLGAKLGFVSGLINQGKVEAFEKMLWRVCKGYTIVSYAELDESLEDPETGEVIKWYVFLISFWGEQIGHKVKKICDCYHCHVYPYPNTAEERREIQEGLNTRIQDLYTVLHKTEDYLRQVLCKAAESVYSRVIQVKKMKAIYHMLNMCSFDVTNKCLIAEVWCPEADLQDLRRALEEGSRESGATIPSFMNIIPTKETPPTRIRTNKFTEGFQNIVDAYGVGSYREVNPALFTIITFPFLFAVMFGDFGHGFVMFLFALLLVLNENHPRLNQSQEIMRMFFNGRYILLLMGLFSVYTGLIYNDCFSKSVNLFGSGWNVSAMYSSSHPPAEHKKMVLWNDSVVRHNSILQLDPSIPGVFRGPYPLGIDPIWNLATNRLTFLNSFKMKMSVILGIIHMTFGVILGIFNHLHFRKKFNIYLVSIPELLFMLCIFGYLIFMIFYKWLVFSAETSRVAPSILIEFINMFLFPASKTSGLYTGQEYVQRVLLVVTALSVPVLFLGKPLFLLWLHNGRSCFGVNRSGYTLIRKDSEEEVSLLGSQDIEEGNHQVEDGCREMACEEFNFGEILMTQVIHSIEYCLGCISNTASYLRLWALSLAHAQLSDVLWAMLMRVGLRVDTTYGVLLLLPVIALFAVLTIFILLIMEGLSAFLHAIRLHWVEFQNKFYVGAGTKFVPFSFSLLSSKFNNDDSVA
UniProt Q9UH62: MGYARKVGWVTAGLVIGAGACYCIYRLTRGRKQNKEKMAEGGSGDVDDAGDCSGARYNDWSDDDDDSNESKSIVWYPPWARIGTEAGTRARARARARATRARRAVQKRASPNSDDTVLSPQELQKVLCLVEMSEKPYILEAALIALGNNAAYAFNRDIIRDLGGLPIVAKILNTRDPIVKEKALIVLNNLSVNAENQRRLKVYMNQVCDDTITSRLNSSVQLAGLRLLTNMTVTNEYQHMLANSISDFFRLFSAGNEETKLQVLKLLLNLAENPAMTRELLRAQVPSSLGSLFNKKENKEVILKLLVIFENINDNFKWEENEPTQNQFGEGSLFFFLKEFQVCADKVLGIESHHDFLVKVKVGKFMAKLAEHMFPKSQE
UniProt P35670: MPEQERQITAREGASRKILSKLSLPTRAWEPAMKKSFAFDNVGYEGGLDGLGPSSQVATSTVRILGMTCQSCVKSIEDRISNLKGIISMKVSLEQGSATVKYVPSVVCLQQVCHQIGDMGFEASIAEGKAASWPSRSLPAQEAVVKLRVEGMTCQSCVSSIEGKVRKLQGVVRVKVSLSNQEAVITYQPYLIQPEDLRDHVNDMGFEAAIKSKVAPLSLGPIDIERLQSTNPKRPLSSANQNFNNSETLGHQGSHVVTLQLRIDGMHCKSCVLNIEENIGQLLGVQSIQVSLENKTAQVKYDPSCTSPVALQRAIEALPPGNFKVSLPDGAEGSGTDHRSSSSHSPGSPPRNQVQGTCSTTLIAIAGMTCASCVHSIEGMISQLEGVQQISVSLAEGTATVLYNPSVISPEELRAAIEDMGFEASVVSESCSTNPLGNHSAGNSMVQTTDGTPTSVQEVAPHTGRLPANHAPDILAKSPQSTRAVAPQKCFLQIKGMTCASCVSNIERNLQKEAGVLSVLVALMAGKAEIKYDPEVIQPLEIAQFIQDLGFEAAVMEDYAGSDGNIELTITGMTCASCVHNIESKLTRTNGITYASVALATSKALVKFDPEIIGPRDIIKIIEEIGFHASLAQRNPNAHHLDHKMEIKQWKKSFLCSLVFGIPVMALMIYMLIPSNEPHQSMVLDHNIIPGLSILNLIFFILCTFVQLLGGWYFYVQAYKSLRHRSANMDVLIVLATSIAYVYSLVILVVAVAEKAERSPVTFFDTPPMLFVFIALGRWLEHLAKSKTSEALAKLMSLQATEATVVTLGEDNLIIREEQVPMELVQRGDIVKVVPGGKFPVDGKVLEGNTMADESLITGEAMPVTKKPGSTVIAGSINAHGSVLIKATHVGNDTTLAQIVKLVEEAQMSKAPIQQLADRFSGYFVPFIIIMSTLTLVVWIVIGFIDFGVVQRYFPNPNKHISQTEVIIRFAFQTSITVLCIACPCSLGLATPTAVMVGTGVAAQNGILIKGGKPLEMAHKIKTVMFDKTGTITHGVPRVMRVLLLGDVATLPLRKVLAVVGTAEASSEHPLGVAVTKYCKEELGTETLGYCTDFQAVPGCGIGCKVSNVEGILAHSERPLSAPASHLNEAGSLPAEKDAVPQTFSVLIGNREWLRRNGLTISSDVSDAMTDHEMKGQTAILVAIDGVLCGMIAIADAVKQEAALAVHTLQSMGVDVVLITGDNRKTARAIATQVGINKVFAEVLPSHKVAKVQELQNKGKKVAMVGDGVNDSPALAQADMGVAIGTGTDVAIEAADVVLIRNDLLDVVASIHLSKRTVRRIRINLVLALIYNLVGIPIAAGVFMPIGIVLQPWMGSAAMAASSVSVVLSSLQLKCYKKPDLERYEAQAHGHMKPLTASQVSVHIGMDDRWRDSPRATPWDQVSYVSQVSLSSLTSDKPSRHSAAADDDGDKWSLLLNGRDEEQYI
UniProt P36405: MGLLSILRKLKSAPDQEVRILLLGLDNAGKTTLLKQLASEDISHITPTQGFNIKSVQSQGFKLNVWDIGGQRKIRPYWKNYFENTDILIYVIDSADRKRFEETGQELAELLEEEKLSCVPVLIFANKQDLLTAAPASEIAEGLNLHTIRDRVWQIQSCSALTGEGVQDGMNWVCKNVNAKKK
UniProt Q16864, whole entry, looked up: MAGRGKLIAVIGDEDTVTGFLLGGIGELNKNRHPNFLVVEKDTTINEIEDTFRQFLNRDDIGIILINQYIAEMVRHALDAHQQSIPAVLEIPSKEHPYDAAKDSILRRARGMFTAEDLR

volasertib = compound: CC[C@@H]1C(=O)N(C)c2cnc(Nc3ccc(C(=O)N[C@H]4CC[C@H](N5CCN(CC6CC6)CC5)CC4)cc3OC)nc2N1C(C)C [volasertib]
Procedure, shortened: as §1

[2] = compound: CC[C@H](C)N1C=C(C2=C(C=C(C=C21)C3=CN=C(C=C3)N4CCNCC4)C(=O)NCC5=C(C=C(NC5=O)C)C)C
Procedure, shortened: as §1

epoxomicin = compound: CC[C@H](C)[C@@H](C(=O)N[C@@H]([C@@H](C)O)C(=O)N[C@@H](CC(C)C)C(=O)[C@]1(CO1)C)NC(=O)[C@H]([C@@H](C)CC)N(C)C(=O)C [epoxomicin]
Procedure, shortened: as §1

[3] = compound: CCn1c(C(=O)N(C2CC2)C2CC2)cc2c3c(ncn3C)c(Nc3cc(C)n(C)n3)nc21
Procedure, shortened: as §1

[4] = compound: CCn1cc(-c2ccnc3[nH]c(-c4cccc(CN(C)C)c4)cc23)c(-c2ccc(NC(=O)N(C)C)cc2)n1
Procedure, shortened: as §1

[5] = compound: CN(C)CC(=O)Nc1ccc2[nH]c(=O)c3ccccc3c2c1
Procedure, shortened: as §1

rosiglitazone = compound: CN(CCOC1=CC=C(C=C1)C[C@H]2C(=O)NC(=O)S2)C3=CC=CC=N3 (racemic) [rosiglitazone]
Procedure, shortened: as §1

[6] = compound: CN1C2=C(C3=C1C(=O)N(N=C3)CC4=CC(=CC=C4)N)SC(=C2)S(=O)C
Procedure, shortened: as §1

[7] = compound: CN1CCC(CNc2ccc3ncc(-c4cccc(OC(F)(F)F)c4)n3n2)CC1
Procedure, shortened: as §1

saracatinib = compound: CN1CCN(CCOc2cc(OC3CCOCC3)c3c(Nc4c(Cl)ccc5c4OCO5)ncnc3c2)CC1 [saracatinib]
Procedure, shortened: as §1

sotrastaurin = compound: CN1CCN(c2nc(C3=C(c4c[nH]c5ccccc45)C(=O)NC3=O)c3ccccc3n2)CC1 [sotrastaurin]
Procedure, shortened: as §1

alvocidib = compound: CN1CC[C@H](c2c(O)cc(O)c3c(=O)cc(-c4ccccc4Cl)oc23)[C@H](O)C1 [alvocidib]
Procedure, shortened: as §1

Tubastatin A = compound: CN1CCc2c(c3ccccc3n2Cc2ccc(C(=O)NO)cc2)C1 [Tubastatin A]
Procedure, shortened: as §1

[8] = compound: CNC(=O)C1=CC=CC=C1NC2=NC(=NC=C2Cl)NC3=C(C=C(C=C3)N4CCOCC4)OC
Procedure, shortened: as §1

defactinib = compound: CNC(=O)c1ccc(Nc2ncc(C(F)(F)F)c(NCc3nccnc3N(C)S(C)(=O)=O)n2)cc1 [defactinib]
Procedure, shortened: as §1

rucaparib = compound: CNCc1ccc(-c2[nH]c3cc(F)cc4c3c2CCNC4=O)cc1 [rucaparib]
Procedure, shortened: as §1

[9] = compound: CNc1nc(-c2ccc3c(N)n[nH]c3c2)cc(N2C[C@@H](C(=O)NC3CCCCC3)CC[C@H]2C)n1
Procedure, shortened: as §1

encorafenib = compound: COC(=O)N[C@@H](C)CNc1nccc(-c2cn(C(C)C)nc2-c2cc(Cl)cc(NS(C)(=O)=O)c2F)n1 [encorafenib]
Procedure, shortened: as §1

[10] = compound: COC(=O)[C@H](CCSC)NC(=O)C1=C(C=C(C=C1)NC[C@H](CS)N)C2=CC=CC=C2
Procedure, shortened: as §1

Target	log2 fold change [1]	log2 fold change (volasertib)	log2 fold change [2]	log2 fold change (epoxomicin)	log2 fold change [3]	log2 fold change [4]	log2 fold change [5]	log2 fold change (rosiglitazone)	log2 fold change [6]	log2 fold change [7]	log2 fold change (saracatinib)	log2 fold change (sotrastaurin)	log2 fold change (alvocidib)	log2 fold change (Tubastatin A)	log2 fold change [8]	log2 fold change (defactinib)	log2 fold change (rucaparib)	log2 fold change [9]	log2 fold change (encorafenib)	log2 fold change [10]
ASCC1 isoform 2 (UniProt Q8N9N2)	inactive: 0.017	inactive: 0.018	inactive: 0.057	inactive: 0.02	inactive: -0.041	inactive: -0.012	inactive: -0.054	inactive: 0.012	inactive: 0.02	inactive: -0.218	inactive: -0.074	inactive: -0.039	inactive: -0.044	inactive: 0.027	inactive: -0.04	inactive: 0.002	inactive: 0.004	inactive: 0.025	inactive: 0.056	inactive: -0.029
ARMC8 (UniProt Q8IUR7)	inactive: -0.055	inactive: -0.14	inactive: 0.053	inactive: -0.008	–	inactive: 0.003	inactive: -0.007	–	inactive: 0.053	inactive: 0.043	inactive: -0.05	inactive: -0.07	–	inactive: 0.009	inactive: 0.016	inactive: -0.005	inactive: 0.017	inactive: 0.228	inactive: 0.026	inactive: -0.031
ATAD1 (UniProt Q8NBU5)	inactive: -0.008	inactive: -0.127	inactive: 0.056	inactive: 0.065	–	inactive: -0.027	inactive: 0.064	–	inactive: -0.033	inactive: -0.046	inactive: -0.044	inactive: 0.029	–	inactive: 0.008	inactive: -0.032	inactive: -0.029	inactive: 0.018	inactive: 0.136	inactive: 0.017	inactive: -0.042
ARL6IP4 (UniProt Q66PJ3)	inactive: 0.008	inactive: -0.009	inactive: -0.023	inactive: 0.014	–	inactive: -0.025	inactive: 0.001	–	inactive: -0.065	inactive: 0.01	inactive: -0.026	inactive: 0.023	–	inactive: -0.024	inactive: -0.05	inactive: -0.038	inactive: 0.01	inactive: -0.002	inactive: -0.059	inactive: 0.016
ATP6V0A2 (UniProt Q9Y487)	inactive: -0.039	inactive: -0.039	inactive: 0.067	inactive: 0.043	–	inactive: 0.028	inactive: -0.034	–	inactive: 0.006	inactive: -0.169	inactive: -0.009	inactive: -0.07	–	inactive: 0.061	inactive: -0.003	inactive: 0.019	inactive: -0.003	inactive: -0.021	inactive: 0.043	inactive: -0.039
ARMCX3 (UniProt Q9UH62)	inactive: 0	inactive: -0.251	inactive: 0.118	inactive: -0.026	inactive: -0.054	inactive: -0.205	inactive: 0.16	inactive: 0	inactive: 0.05	inactive: -0.015	inactive: -0.099	inactive: -0.159	inactive: -0.061	inactive: 0.135	inactive: -0.01	inactive: -0.037	inactive: 0.066	inactive: 0.055	inactive: 0.055	inactive: -0.051
ATP7B (UniProt P35670)	inactive: -0.03	inactive: -0.043	inactive: 0.06	inactive: 0.103	–	inactive: -0.031	inactive: 0.024	–	inactive: 0.034	inactive: 0.009	inactive: 0.069	inactive: 0.005	–	inactive: 0.01	inactive: -0.019	inactive: -0.011	inactive: -0.044	inactive: 0.005	inactive: 0.052	inactive: -0.021
ARL3 (UniProt P36405)	inactive: 0.036	inactive: 0.046	inactive: 0.001	inactive: -0.01	–	inactive: -0.005	inactive: -0.014	–	inactive: -0.098	inactive: -0.018	inactive: 0.021	inactive: -0.008	–	inactive: -0.012	inactive: -0.025	inactive: -0.025	inactive: -0.033	inactive: -0.035	inactive: -0.022	inactive: 0.022
ATP6V1F isoform 2 (UniProt Q16864)	inactive: 0.01	inactive: -0.036	inactive: -0.043	active: 0.525	–	inactive: 0.02	inactive: 0.165	–	inactive: 0.033	inactive: 0.056	inactive: -0.198	inactive: 0.092	–	inactive: 0.11	inactive: 0.031	inactive: 0.007	inactive: -0.037	inactive: -0.129	inactive: -0.039	inactive: 0.238
